Measured values: PubChem BioAssay AID504444 (National Center for Advancing Translational Sciences (NCATS), 2011)
Hit rate of the full screen: of about 360,000 compounds, about 7,500 (2.1%) were called active. Inconclusive results, whose numbers are uncertain, are shown with a selection of clear calls. Calls come from the whole dose curve; as a rule, active = well fitted inhibition curve with a large enough effect; inconclusive = small, poorly fitted or top-dose-only effect, or effect the other way; inactive = flat fitted curve, though single readings scatter. A potency beside an inconclusive call is a rough fit, not a confirmed value.

Test: Nrf2 qHTS screen for inhibitors; note: nearly all actives have a fitted effect of over 60% in size
Details: A549 ARE-Fluc reporter, luciferase luminescence, 18-24 h; activity change, negative = inhibition: at 46 µM (top of the series)
Summary of the method: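 Concentration-response testing used A549 ARE_Fluc cells at 5000 cells/well. Following an 18-24 h compound incubation, viability was read by fluorescence (Ex 405/Em 525) and luciferase output by luminescence.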
% is set by controls: 0 for no effect and ±100 for the full control effect; potency is the fitted concentration of half-maximal effect.

| Structure (SMILES) | activity change, negative = inhibition | Potency |
| --- | --- | --- |
| COc1cccc(NC(=O)CN(C)C(=O)c2cc(CN3C(=O)c4ccccc4C3=O)ccc2OC)c1 | inactive: 7.18% |  |
| Cc1ccc(NC(=O)COC(=O)C2(c3ccc(Cl)cc3)CCCC2)cc1 | inactive: -21.1% |  |
| Cc1nnc(NC(=O)C(=O)c2cc(C)n(-c3ccc(C)c(C)c3)c2C)s1 | inactive: -17.3% |  |
| COc1ccccc1Oc1coc2c(CN(C)C)c(O)ccc2c1=O | inactive: 22.6% |  |
| Cc1ccccc1SCC(=O)OCC(=O)NCc1ccccc1 | inactive: 0.849% |  |
| O=C(CSc1nnc(-c2cccnc2)o1)N1CCCCC1 |  | inconclusive: 6.51 µM [activator, full curve] |
| COc1ccc(CN2C(=O)C(CC(C)C)Nc3ncnc(N4CCN(c5ccccn5)CC4)c32)cc1 (configuration not stated) |  | inconclusive: 29.1 µM [activator, single point] |
| CCOC(=O)c1ccc(NS(=O)(=O)c2cc3c4c(c2)CCN4C(=O)CC3)cc1 |  | inconclusive: 20.6 µM [falling, single point] |
| Cc1cc(C(=O)CSc2nnc(-c3ccccc3F)o2)c(C)n1Cc1cccs1 |  | inconclusive: 13 µM [falling, partial curve, poor fit] |
| Cc1cccc(-n2c(=O)c3c(c4cc(C)ccc4n3C)n(CC(=O)Nc3ccc(C)cc3C)c2=O)c1 |  | inconclusive: 5.8 µM [activator, full curve] |
| CCN1CSC(=S)N(Cc2ccccc2)C1 | inactive: 15.5% |  |
| O=C(COc1ccc(-n2ccnc2)cc1)Nc1cccc(Cl)c1 |  | inconclusive: 29.1 µM [falling, single point] |
| Nc1cc(-c2ccc(Br)cc2)nn1S(=O)(=O)c1ccccc1 | inactive: 2.95% |  |
| Cc1cc(=O)oc2cc(OCC3CC(c4ccc(Br)cc4)=NO3)ccc12 (configuration not stated) |  | inconclusive: 2.91 µM [falling, full curve] |
| O=C(C[C@@H]1C/C=C/CC[C@H](Cc2ccc(F)cc2)C(=O)OCCNC1=O)N[C@H](CO)Cc1ccccc1 |  | inconclusive: 18.4 µM [falling, single point] |
| CCc1ccc(-n2c(=O)c3cccnc3n2CC(=O)Nc2ccccc2C(F)(F)F)cc1 |  | inconclusive: 20.6 µM [falling, partial curve, poor fit] |
| O=C(CC1C=Cc2ccccc2N1C(=O)c1ccccc1)c1ccccc1 (configuration not stated) |  | inconclusive: 23.1 µM [falling, single point] |
| Cc1ccc2nc(N(CCCN(C)C)C(=O)c3cc(-c4cccs4)nc4ccccc34)sc2c1 |  | inconclusive: 20.6 µM [falling, single point] |
| Oc1ccc(/C=N/N2CCCCC2)c(O)c1 |  | inconclusive: 5.8 µM [activator, full curve, poor fit] |
| O=c1oc2ccccc2cc1-c1cn2cc(Cc3ccccc3F)sc2n1 |  | inconclusive: 0.411 µM [activator, full curve] |
| O=C(c1ccc(S(=O)(=O)NCC2CCCO2)cc1)N1CCN(c2ccccc2F)CC1 (configuration not stated) | inactive: -7.43% |  |

An excerpt from above in order of molar mass, low to high:

| Structure (SMILES) | activity change, negative = inhibition | Potency |
| --- | --- | --- |
| O=C(CC1C=Cc2ccccc2N1C(=O)c1ccccc1)c1ccccc1 (configuration not stated) |  | inconclusive: 23.1 µM [falling, single point] |
| O=C(c1ccc(S(=O)(=O)NCC2CCCO2)cc1)N1CCN(c2ccccc2F)CC1 (configuration not stated) | inactive: -7.43% |  |
| Cc1ccc2nc(N(CCCN(C)C)C(=O)c3cc(-c4cccs4)nc4ccccc34)sc2c1 |  | inconclusive: 20.6 µM [falling, single point] |

(further entries)

| Structure (SMILES) | activity change, negative = inhibition | Potency |
| --- | --- | --- |
| C/C(=N\N=C1\NC(=O)C(CC(=O)Nc2ccc(C)c(Cl)c2)S1)C(C)C (configuration not stated) |  | inconclusive: 25.9 µM [falling, single point] |
| O=C(c1cc2ccccn2n1)N1CCN(c2cccc(C(F)(F)F)c2)CC1 |  | inconclusive: 18.4 µM [falling, partial curve, poor fit] |
| Cc1ccc(-n2c(-c3ccco3)nc3c(cnn3-c3ccccc3C)c2=O)cc1 |  | inconclusive: 23.1 µM [falling, partial curve, poor fit] |
| Cc1ccc2nc(NCCO)nc(-c3ccccc3)c2c1 |  | inconclusive: 16.4 µM [falling, single point] |
| CSCC(=O)N1CCCC(CNC(=O)c2ccccc2Cl)C1 (configuration not stated) |  | inconclusive: 8.2 µM [activator, partial curve] |
| O=[N+]([O-])c1cc(-c2nc(-c3ccccc3)no2)ccc1NC1CCCC1 |  | inconclusive: 20.6 µM [falling, single point] |
| Cc1ccc(NC(=S)N/N=C2\CCCCC2C)cc1 (configuration not stated) |  | inconclusive: 2.91 µM [activator, full curve] |
| CC1CN(S(=O)(=O)c2cccc(C(=O)NCC3COc4ccccc4O3)c2)CC(C)O1 (configuration not stated) |  | inconclusive: 18.4 µM [falling, single point] |
| Clc1ccc(Br)cc1-c1nc(-c2ccncc2)no1 |  | inconclusive: 20.6 µM [activator, single point] |
| O=C(NC12CC3CC(CC(C3)C1)C2)N1CCN(c2nc(-c3ccccc3)cs2)CC1 |  | inconclusive: 16.4 µM [falling, single point] |
| Cc1ccc(NC(=O)Cc2nnc(SCC(=O)NC3CCCC3)n2C)cc1C | inactive: 4.45% |  |
| CC(C)c1ccc(OCc2cccc(C(=O)N/N=C/c3cccnc3)c2)cc1 |  | inconclusive: 0.651 µM [activator, partial curve] |
| COc1ccc(CC(=O)N(Cc2ccccc2)c2ccc(C)cc2)cc1S(=O)(=O)N1CCOCC1 |  | inconclusive: 20.6 µM [activator, single point] |
| Nc1cc(-c2ccccc2)nn1S(=O)(=O)c1ccc(Br)cc1 |  | inconclusive: 29.1 µM [falling, single point] |
| CCCc1cc(C(=O)Nc2c(C)nn(Cc3ccc(Cl)c(Cl)c3)c2C)no1 |  | active: 16.4 µM |
| CCOc1ccc2oc(-c3ccccc3)c(C(=O)N(C)C)c2c1 |  | inconclusive: 29.1 µM [falling, single point] |
| CCOc1ccccc1NC(=O)NC1CC2CCCC(C1)N2Cc1nnnn1CCc1ccccc1 (configuration not stated) |  | inconclusive: 9.2 µM [falling, partial curve, poor fit] |
| Cc1ccnc(SCC(=O)c2cccs2)n1 |  | inconclusive: 20.6 µM [activator, partial curve, poor fit] |
| COc1ccc(-c2cc(-c3ccc(Cl)cc3)c(C#N)c(SCC(=O)O)n2)cc1 |  | inconclusive: 29.1 µM [falling, single point] |
| COc1ccc(N2CCN(C(=O)c3ccc4c(Cl)c5c(nc4c3)CCCC5)CC2)cc1 |  | inconclusive: 4.11 µM [activator, single point] |
| CCc1sc(/C=C(/C#N)C(N)=S)cc1[N+](=O)[O-] |  | inconclusive: 23.1 µM [falling, single point] |
